The list is a part of this screen's results and no random one: it is rich in T/C values a quarter to a half above the control, in often repeated tests (any T/C) and in doses without a T/C. Other doses and runs of a compound stand elsewhere. T/C is the treated group as % of the vehicle group. Some entries give survivors of the animals treated and no T/C: the source holds a T/C of zero for them, seemingly a mark for toxic or unscored doses. Some doses without a T/C left all or most animals alive at the check, yet need not have been tolerated: the source hardly ever lists a survival T/C far under the control, and the zero likely stands for such cases as well. Survivors were counted at the toxicity check, usually on the fifth day, unless a day is given; later deaths do not show. Schedule codes are those of the source, taken here to give the interval after Q, in days (D) or hours (H), and the number of doses after X. Some entries hold several experiments; the values are given in rising order. For survival time, the PubChem record calls one and a half times the control and up active, and a quarter to a half above the control has no call in these data; cut-offs in other NCI protocols can differ. Some T/C values are followed by the survivors on the day toxicity was checked, most often the fifth; without a count, all were alive then.
Tested on: BDF1 mice, P388 leukemia ip, median survival T/C
Experiment: NCI In Vivo Anticancer Drug Screen. Data for tumor model P388 Leukemia (intraperitoneal) in B6D2F1 (BDF1) mice
Conditions: T/C endpoint: median survival time, higher T/C = longer survival
How it was run: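 Each value expresses how treatment altered survival: treated-mouse outcome over vehicle-mouse outcome, both groups bearing the transplanted tumour.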

[1] = dose: 50.0 mg/kg/injection, schedule: Q01DX009 (ip), vehicle: Klucel (hydroxypropylcellulose) (HPC)
[2] = dose: 200.0 mg/kg/injection, schedule: Q01DX009 (ip), vehicle: Klucel (hydroxypropylcellulose) (HPC)
[3] = dose: 100.0 mg/kg/injection, schedule: Q01DX009 (ip), vehicle: saline with Tween-80
[4] = dose: 200.0 mg/kg/injection, schedule: Q01DX009 (ip), vehicle: saline with Tween-80
[5] = dose: 50.0 mg/kg/injection, schedule: Q01DX009 (ip), vehicle: saline with Tween-80
[6] = dose: 400.0 mg/kg/injection, schedule: Q04DX003 (ip), vehicle: Klucel (hydroxypropylcellulose) (HPC)
[7] = dose: 100.0 mg/kg/injection, schedule: Q04DX003 (ip), vehicle: saline with Tween-80

## COc1cc2c(c(OC)c1OC)-c1ccc(SCc3ccccc3)c(=O)cc1[C@@H](NC(C)=O)CC2
dose: 6.25 mg/kg/injection, schedule: Q01DX009 (ip), vehicle: Klucel (hydroxypropylcellulose) (HPC)
  T/C: 146 % of control [5 of 6 alive]
dose: 12.5 mg/kg/injection, schedule: Q01DX009 (ip), vehicle: Klucel (hydroxypropylcellulose) (HPC)
  T/C: 132 % of control
dose: 18.0 mg/kg/injection, schedule: Q01DX009 (ip), vehicle: Klucel (hydroxypropylcellulose) (HPC)
  survivor count: 6 of 6
dose: 25.0 mg/kg/injection, schedule: Q01DX009 (ip), vehicle: Klucel (hydroxypropylcellulose) (HPC)
  survivor count: 4 of 6 and 6 of 6
[1]
  survivor count: 0 of 6
dose: 100.0 mg/kg/injection, schedule: Q01DX009 (ip), vehicle: Klucel (hydroxypropylcellulose) (HPC)
  survivor count: 0 of 6
[2]
  survivor count: 0 of 6
dose: 400.0 mg/kg/injection, schedule: Q01DX009 (ip), vehicle: Klucel (hydroxypropylcellulose) (HPC)
  survivor count: 0 of 6

## COc1cccc2c(Cl)c(CCl)c(C)nc12
[3]
  survivor count: 4 of 6
[4]
  survivor count: 0 of 6
dose: 400.0 mg/kg/injection, schedule: Q01DX009 (ip), vehicle: saline with Tween-80
  survivor count: 0 of 6

## N#Cc1sc2ccccc2c1CBr
[1]
  survivor count: 4 of 6
dose: 75.0 mg/kg/injection, schedule: Q04DX003 (ip), vehicle: Klucel (hydroxypropylcellulose) (HPC)
  survivor count: 2 of 6

## CCCCCCCCCCNC1CC(OC2CC(O)(C(C)=O)Cc3c(O)c4c(c(O)c32)C(=O)c2c(OC)cccc2C4=O)OC(C)C1O (stereo not given)
dose: 12.5 mg/kg/injection, schedule: Q01DX009 (ip), vehicle: water
  survivor count: 3 of 3
dose: 25.0 mg/kg/injection, schedule: Q01DX009 (ip), vehicle: water
  survivor count: 1 of 3
dose: 50.0 mg/kg/injection, schedule: Q01DX009 (ip), vehicle: water
  survivor count: 0 of 3

## Cc1ccccc1-c1cc2ccccc2c(N)n1
[5]
  survivor count: 0 of 6
[3]
  survivor count: 0 of 6
[4]
  survivor count: 0 of 6

## Cc1cc(C)c(C(=O)C=O)c(C)c1
[2]
  survivor count: 4 of 5

## CCOC(=S)S
dose: 400.0 mg/kg/injection, schedule: Q01DX009 (ip), vehicle: saline
  survivor count: 2 of 6

## CCCCCCCCCCC(C)c1ccc(S(=O)(=O)O)cc1 (stereo not given)
[3]
  T/C: 136 % of control
[4]
  survivor count: 1 of 6

## COC(=O)C1CN(c2ccccc2)N=C1C(C)=O (stereo not given)
dose: 400.0 mg/kg/injection, schedule: Q04DX003 (ip), vehicle: saline with Tween-80
  survivor count: 6 of 6

## CCCCCCCCCCCCCCCCN(C)CCO
dose: 100.0 mg/kg/injection, schedule: Q01DX009 (ip), vehicle: saline + alcohol
  survivor count: 6 of 6
dose: 200.0 mg/kg/injection, schedule: Q01DX009 (ip), vehicle: saline + alcohol
  survivor count: 0 of 6

## Cc1c2oc3c(C)c([N+](=O)[O-])cc(C(=O)NC4C(=O)NC(C(C)C)C(=O)N5CCCC5C(=O)N(C)CC(=O)N(C)C(C(C)C)C(=O)OC4C)c3nc-2c(C(=O)NC2C(=O)NC(C(C)C)C(=O)N3CCCC3C(=O)N(C)CC(=O)N(C)C(C(C)C)C(=O)OC2C)c(N)c1=O (stereo not given)
dose: 100.0 micrograms/kg/injection, schedule: Q01DX009 (ip), vehicle: saline + alcohol
  T/C: 143 % of control
dose: 200.0 micrograms/kg/injection, schedule: Q01DX009 (ip), vehicle: saline + alcohol
  survivor count: 8 of 8
dose: 225.0 micrograms/kg/injection, schedule: Q04DX003 (ip), vehicle: saline + alcohol
  T/C: 132 % of control
dose: 300.0 micrograms/kg/injection, schedule: Q01DX009 (ip), vehicle: saline + alcohol
  survivor count: 8 of 8
dose: 300.0 micrograms/kg/injection, schedule: Q04DX003 (ip), vehicle: saline + alcohol
  T/C: 128 % of control
dose: 400.0 micrograms/kg/injection, schedule: Q01DX009 (ip), vehicle: saline + alcohol
  survivor count: 8 of 8
dose: 900.0 micrograms/kg/injection, schedule: Q04DX003 (ip), vehicle: saline + alcohol
  survivor count: 8 of 8

## Cc1cc(=O)[nH]c2c1ccc1[nH]c(=O)cc(C)c12
dose: 400.0 mg/kg/injection, schedule: Q01DX001 (ip), vehicle: Klucel (hydroxypropylcellulose) (HPC)
  survivor count: 6 of 6

## O=[N+]([O-])c1cc(S(=O)(=O)OCC2CO2)ccc1Cl (stereo not given)
dose: 25.0 mg/kg/injection, schedule: Q04DX003 (ip), vehicle: Klucel (hydroxypropylcellulose) (HPC)
  survivor count: 4 of 6
[1]
  survivor count: 1 of 6
dose: 50.0 mg/kg/injection, schedule: Q04DX003 (ip), vehicle: Klucel (hydroxypropylcellulose) (HPC)
  survivor count: 5 of 6
dose: 200.0 mg/kg/injection, schedule: Q04DX003 (ip), vehicle: Klucel (hydroxypropylcellulose) (HPC)
  survivor count: 0 of 6
[6]
  survivor count: 0 of 6

## CN1CCc2cc3c4cc2C1Cc1ccc(O)c(c1)Oc1ccc(cc1)CC1c2c(cc(O)c(c2O4)O3)CCN1C (stereo not given)
dose: 15.0 mg/kg/injection, schedule: Q01DX009 (ip), vehicle: saline with Tween-80
  survivor count: 3 of 3
dose: 30.0 mg/kg/injection, schedule: Q01DX009 (ip), vehicle: saline with Tween-80
  survivor count: 2 of 3

## O=C(Nc1cccc2ccccc12)N1c2ccccc2SC12CCCC2
[5]
  survivor count: 6 of 6
[4]
  survivor count: 6 of 6

## CCC1CN1P(=O)(Oc1ccc2ccccc2c1)N1CC1CC (stereo not given)
[7]
  T/C: 127 % of control

## Cc1cc(N(CCCl)CCCl)ccc1C=Nc1ccccc1-c1ccccc1
[2]
  T/C: 133 % of control
dose: 267.0 mg/kg/injection, schedule: Q01DX009 (ip), vehicle: Klucel (hydroxypropylcellulose) (HPC)
  T/C: 126 % of control
[6]
  T/C: 125 % of control

## IP(c1ccccc1)(c1ccccc1)(c1ccccc1)N1C2CCCCC21 (stereo not given)
dose: 0.15 mg/kg/injection, schedule: Q01DX009 (ip), vehicle: saline
  T/C: 127 % of control
dose: 0.3 mg/kg/injection, schedule: Q01DX009 (ip), vehicle: saline
  T/C: 131 and 149 % of control
dose: 0.6 mg/kg/injection, schedule: Q01DX009 (ip), vehicle: saline
  T/C: 145 % of control
dose: 0.62 mg/kg/injection, schedule: Q01DX009 (ip), vehicle: saline
  survivor count: 3 of 6
dose: 0.93 mg/kg/injection, schedule: Q04DX003 (ip), vehicle: saline
  T/C: 136 % of control
dose: 1.25 mg/kg/injection, schedule: Q01DX009 (ip), vehicle: saline
  survivor count: 2 of 6
dose: 1.4 mg/kg/injection, schedule: Q04DX003 (ip), vehicle: saline
  T/C: 127 % of control
dose: 2.5 mg/kg/injection, schedule: Q01DX009 (ip), vehicle: saline
  survivor count: 0 of 6

## O=[N+]([O-])c1ccc(N2CCN(CCO)CC2)c2nonc12
dose: 60.0 mg/kg/injection, schedule: Q01DX009 (ip), vehicle: saline with Tween-80
  survivor count: 6 of 7
[7]
  survivor count: 4 of 7

## NCCCCS(=O)(=O)Nc1ccc(Nc2c3ccccc3nc3cc([N+](=O)[O-])ccc23)cc1
dose: 4.4 mg/kg/injection, schedule: Q04DX003 (ip), vehicle: saline
  T/C: 136 % of control
dose: 6.6 mg/kg/injection, schedule: Q04DX003 (ip), vehicle: saline
  T/C: 136 % of control
dose: 8.8 mg/kg/injection, schedule: Q04DX003 (ip), vehicle: saline
  T/C: 131 % of control
dose: 10.0 mg/kg/injection, schedule: Q04DX003 (ip), vehicle: saline
  T/C: 145 % of control
dose: 13.2 mg/kg/injection, schedule: Q04DX003 (ip), vehicle: saline
  T/C: 140 % of control
dose: 20.0 mg/kg/injection, schedule: Q04DX003 (ip), vehicle: saline
  T/C: 140 % of control
dose: 22.0 mg/kg/injection, schedule: Q04DX003 (ip), vehicle: saline
  T/C: 127 % of control
dose: 30.0 mg/kg/injection, schedule: Q04DX003 (ip), vehicle: saline
  T/C: 136 % of control
dose: 400.0 mg/kg/injection, schedule: Q04DX003 (ip), vehicle: saline
  survivor count: 6 of 6

## CC1CC(N)=NC1C(=O)NCCC#N (stereo not given)
[4]
  survivor count: 6 of 6

## CSc1nc(N)nc2c1ncn2C1CC(O)C(CO)O1 (stereo not given)
dose: 200.0 mg/kg/injection, schedule: Q01DX009 (ip), vehicle: saline
  survivor count: 6 of 6

## O=C(O)/C(Cl)=C(Cl)\C=N\Nc1ccccc1
dose: 100.0 mg/kg/injection, schedule: Q04DX002 (ip), vehicle: saline with Tween-80
  survivor count: 6 of 6
dose: 400.0 mg/kg/injection, schedule: Q04DX002 (ip), vehicle: saline with Tween-80
  survivor count: 0 of 6

— PubChem BioAssay AID328 (DTP/NCI, 2004)
